Data taken from PubChem BioAssay AID624116 (National Center for Advancing Translational Sciences (NCATS), 2012).
Inconclusive results, whose numbers are uncertain, are shown with a selection of clear calls. Potencies of inconclusive entries are doubtful fits and often do not repeat. Active and inactive are the calls of the source. The call rests on the fitted dose curve; in most records, active means well fitted activation curve with a large enough effect; inconclusive means small, poorly fitted or top-dose-only effect; inactive means no such curve, though single readings can be large or run the other way.

experiment: qHTS Assay for Rab9 Promoter Activators: Hit Validation Using Renilla Luciferase Read-Out for Rab9; settings: Huh7 Rab9 promoter Renilla luciferase reporter, 24 h; series mostly up to 76.9 µM; activation, negative = inhibition: at the top concentration; on activation, negative = inhibition: % of control where 0% means no effect
Text: Niemann Pick Type C (NPC) is a rare neurodegenerative lipidosis that is characterized by lipid storage in the endosomal/lysosomal system. Treatment modalities for this devastating disease are currently non-existent due to the severe obstacles associated with accessing the central nervous system with proteins or genes. The majority of mutations causing NPC disease are missense mutations that are distributed throughout the length of the NPC1 protein, with the most prevalent being the I1061T allele. Although NPC1 mutant proteins may be functional, they are typically trapped in the ER due to misfolding. […] We have developed and optimized a cell based renilla luciferase reporter assay in 1536 well format for the identification of up-regulators of the mutant Rab9 promoter. This assay presents data on the validation of hits from the primary screen, which used a firefly luciferase read-out. NIH Chemical Genomics Center [NCGC] NIH Molecular Libraries Probe Production centers Network [MLPCN] MLPCN Grant: MH089375 Assay Submitter (PI): Yiannis A. Ioannou
Huh7 cells stably expressing NPC promoter-luciferase will be seeded at 1,500 cells/well in 5 uL in 1,536-well white opaque plates with 23 nL/well of compound in DMSO solution. The assay plates will be incubated at 37 deg C for 24 hours, after which 3 uL/well BriteLite plus luciferase detection reagent mixture (Perkin Elmer) will be added. Luminescence signal will be measured in a ViewLux plate reader (Perkin Elmer) after a 10 minute incubation at the room temperature.
Potency means the concentration at half of the fitted maximal effect.

SMILES | Potency | activation, negative = inhibition
CCOc1ccc(S(=O)(=O)NCc2ccccc2)cc1C(N)=O | inconclusive: 4.63 µM [activator, partial curve, poor fit] | –
Cc1ccc(C(=O)NCc2ccc3c(c2)OCO3)cc1C | inconclusive: 46.3 µM [activator, partial curve] | –
O=C(CCCC(=O)N(CC(=O)NC1CCCCC1)c1cccc(F)c1)Nc1ccccn1 | inconclusive: 36.8 µM [activator, single point] | –
N#C/C(=C\c1ccc[nH]1)C(=O)Nc1ccccc1Cl | active: 23.2 µM | –
Cc1ccc(C#N)c(SCC(=O)Nc2nccs2)n1 | – | inactive: 0.867%
NNC(=O)c1cccc(S(=O)(=O)Nc2cc(Cl)ccc2Cl)c1 | inconclusive: 26 µM [activator, partial curve, poor fit] | –
Cc1ccc(NC(=O)Nc2cccc3ccccc23)cc1 | – | inactive: -5.88%
Nc1ccc(C(=O)Nc2ccccc2N)cc1 | active: 16.4 µM | –
OCCC1CN(Cc2nc3ccccc3s2)CCN1C1CCCC1 (stereo not given) | inconclusive: 32.8 µM [activator, partial curve, poor fit] | –
O=C(O)C1=CC[C@@H](c2ccc(Cl)cc2)N(S(=O)(=O)c2ccc(Cl)cc2)[C@H]1c1ccccc1 | active: 14.6 µM | –
Cc1ccc(S(=O)(=O)N2CCN(c3cnn(C)c(=O)c3Cl)CC2)cc1 | – | inactive: -1.64%
COc1ccc(OC)c(S(=O)(=O)N2CCN3CCCC3C2)c1 (stereo not given) | inconclusive: 32.8 µM [activator, partial curve] | –
O=C(CCCn1c(=O)oc2ccccc21)N1CCN(c2ccccn2)CC1 | – | inactive: -4.46%
O=C(c1cc2cc([N+](=O)[O-])ccc2oc1=O)n1cccn1 | inconclusive: 26 µM [activator, partial curve, poor fit] | –
COc1ccc(C2(CNC(=O)/C=C/c3ccco3)CCCC2)cc1OC | inconclusive: 9.23 µM [activator, partial curve] | –
CCCCn1c(CCNC(=O)c2cccs2)nc2ccccc21 | – | inactive: -4.02%
O=C(NCCc1ccccc1)c1cc2ncc(Br)cn2n1 | – | inactive: 1.2%
O=S(=O)(c1cccs1)N1CCN(c2ncccn2)CC1 | inconclusive: 29.2 µM [activator, partial curve, poor fit] | –
CCCCCCOc1ccc(OC(=O)c2cccnc2)cc1 | inconclusive: 1.84 µM [activator, full curve, poor fit] | –
O=C(NCC1CCCO1)C(c1ccc(F)cc1)N(Cc1ccc2c(c1)OCO2)C(=O)c1ccc(CN2CCOCC2)o1 (stereo not given) | inconclusive: 20.7 µM [activator, partial curve, poor fit] | –

No new results follow: 3 of the compounds above.
SMILES | Potency | activation, negative = inhibition
O=C(CCCn1c(=O)oc2ccccc21)N1CCN(c2ccccn2)CC1 | – | inactive: -4.46%
O=C(c1cc2cc([N+](=O)[O-])ccc2oc1=O)n1cccn1 | inconclusive: 26 µM [activator, partial curve, poor fit] | –
COc1ccc(C2(CNC(=O)/C=C/c3ccco3)CCCC2)cc1OC | inconclusive: 9.23 µM [activator, partial curve] | –

More compounds.

SMILES | Potency | activation, negative = inhibition
CCOC(=O)c1ccccc1NC(=O)CSc1nnc(Cc2cccn2C)n1-c1ccc(F)cc1 | active: 36.8 µM | –
O=C(NCCc1c[nH]c2ccccc12)C(=O)NCC(c1ccco1)N1CCN(c2ccccc2F)CC1 (stereo not given) | – | inactive: -2.24%
COC(=O)CSc1nc2cc3c(cc2cc1C#N)OCO3 | – | inactive: -9.61%
Cc1cccc(N2CCN(C(=S)c3ccccc3)CC2)c1 | – | inactive: -5.48%
Cc1ccc(CNC(=O)Nc2ccc(C)cc2)cc1 | – | inactive: -8.38%
O=C(CSc1nnc(-c2ccccc2)o1)Nc1ccccc1F | – | inactive: -12.2%
CC(=O)[C@@H]1[C@@H](C(=O)c2ccc(C)cc2)[C@]2(C(=O)Nc3ccccc32)[C@H]2C=Cc3cc(F)ccc3N12 | inconclusive: 13 µM [activator, partial curve, poor fit] | –
COc1ccc(-c2csc(N(CCCN(C)C)C(=O)c3ccccc3C)n2)cc1 | inconclusive: 8.23 µM [activator, partial curve] | –
COCCn1c(SCc2ccc(C(=O)OC)o2)nc2cc(Cl)ccc2c1=O | inconclusive: 51.9 µM [activator, single point] | –
CN(C)C(CNC(=O)CNC(=O)c1ccc2ccccc2c1)c1ccccc1 (stereo not given) | inconclusive: 41.2 µM [activator, partial curve, poor fit] | –
CCOC(=O)c1ccc(NC(=O)Oc2cc(C)c(Cl)cc2C(C)C)cc1 | – | inactive: -0.506%
CCCOC(=O)Cn1cnc2scc(-c3ccc(OC)cc3)c2c1=O | inconclusive: 32.8 µM [activator, partial curve] | –
CC(=O)Nc1nnc(SCC(=O)NCCOc2ccccc2)s1 | – | inactive: -5.36%
COc1ccc(NC(=O)c2cc3ccccc3o/c2=N\NS(=O)(=O)c2ccc(C)cc2)cc1 | inconclusive: 1.46 µM [activator, full curve, poor fit] | –
COc1ccc(S(=O)(=O)N2CCCC(C(=O)NCc3ccncc3)C2)cc1Cl (stereo not given) | inconclusive: 14.6 µM [activator, full curve, poor fit] | –
Cc1ccc(S(=O)(=O)/N=C(/Nc2ccccn2)c2ccc(Cl)cc2)cc1 | active: 14.6 µM | –
CCC1=[N+](CC(=O)c2ccc(C)cc2)CCn2cccc21 | inconclusive: 16.4 µM [activator, partial curve] | –
O=C(CSc1nccn1Cc1ccco1)Nc1ccccc1F | inconclusive: 41.2 µM [activator, single point] | –
CCc1cc2c(N=Nc3c(O)[nH]c4ccccc34)ncnc2s1 | inconclusive: 18.4 µM [activator, partial curve, poor fit] | –
O=C(c1cc2cc(Br)ccc2[nH]1)N1CCc2ccccc21 | inconclusive: 13 µM [activator, single point] | –
